{
  "source": "the supplement of paper PMC8728848",
  "assay_in_all_cases": "glycan array binding signal (z-score within array); higher = stronger binding",
  "conditions_in_all_cases": "glycan notation: IUPAC condensed, linker removed",
  "key": {"[1]": {"biological_target": "Gal(b1-3)GlcNAc(b1-2)Man(a1-3)[Gal(b1-3)GlcNAc(b1-2)Man(a1-6)]Man(b1-4)GlcNAc(b1-4)GlcNAc", "in_short": "(§1)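 Negative Z-scores can be read as non-binding. The Z-score is calculated within each array and then averaged across arrays of one protein sequence at different concentrations or buffers and across linkers. Arrays, 3228 in all, were curated from the Consortium for Functional Glycomics database and kept only where the protein sequence was available.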"}, "[2]": {"biological_target": "Gal(b1-3)GlcNAc(b1-2)Man(a1-3)[Gal(b1-3)GlcNAc(b1-2)Man(a1-6)]Man(b1-4)GlcNAc(b1-4)[Fuc(a1-6)]GlcNAc", "in_short": "as §1"}, "[3]": {"biological_target": "Gal(b1-3)GlcNAc(b1-2)Man(a1-3)[GlcNAc(b1-4)][Gal(b1-3)GlcNAc(b1-2)Man(a1-6)]Man(b1-4)GlcNAc(b1-4)GlcNAc", "in_short": "as §1"}, "[4]": {"biological_target": "Gal(b1-3)GlcNAc(b1-2)[Gal(b1-3)GlcNAc(b1-6)]Man(a1-6)[Gal(b1-3)GlcNAc(b1-2)Man(a1-3)]Man(b1-4)GlcNAc(b1-4)GlcNAc", "in_short": "as §1"}, "[5]": {"biological_target": "Gal(b1-3)GlcNAc(b1-3)Gal(b1-3)GlcNAc", "in_short": "as §1"}, "[6]": {"biological_target": "Gal(b1-3)GlcNAc(b1-3)Gal(b1-4)Glc", "in_short": "as §1"}, "[7]": {"biological_target": "Gal(b1-3)GlcNAc(b1-3)Gal(b1-4)GlcNAc", "in_short": "as §1"}, "[8]": {"biological_target": "Gal(b1-3)GlcNAc(b1-3)Gal(b1-4)GlcNAc(b1-2)Man(a1-3)[Gal(b1-3)GlcNAc(b1-3)Gal(b1-4)GlcNAc(b1-2)Man(a1-6)]Man(b1-4)GlcNAc(b1-4)GlcNAc", "in_short": "as §1"}, "[9]": {"biological_target": "Gal(b1-3)GlcNAc(b1-3)Gal(b1-4)GlcNAc(b1-2)[Gal(b1-3)GlcNAc(b1-3)Gal(b1-4)GlcNAc(b1-6)]Man(a1-6)[Gal(b1-3)GlcNAc(b1-3)Gal(b1-4)GlcNAc(b1-2)Man(a1-3)]Man(b1-4)GlcNAc(b1-4)[Fuc(a1-6)]GlcNAc", "in_short": "as §1"}, "[10]": {"biological_target": "Gal(b1-3)GlcNAc(b1-3)Gal(b1-4)GlcNAc(b1-3)Gal(b1-4)GlcNAc(b1-2)[Gal(b1-3)GlcNAc(b1-3)Gal(b1-4)GlcNAc(b1-3)Gal(b1-4)GlcNAc(b1-6)]Man(a1-6)[Gal(b1-3)GlcNAc(b1-3)Gal(b1-4)GlcNAc(b1-3)Gal(b1-4)GlcNAc(b1-2)Man(a1-3)]Man(b1-4)GlcNAc(b1-4)[Fuc(a1-6)]GlcNAc", "in_short": "as §1"}, "[11]": {"biological_target": "Gal(b1-3)GlcNAc(b1-3)Gal(b1-4)GlcNAc(b1-6)[Gal(b1-3)GlcNAc(b1-3)]Gal(b1-4)Glc", "in_short": "as §1"}, "[12]": {"biological_target": "Gal(b1-3)GlcNAc(b1-3)Gal(b1-4)[Fuc(a1-3)]GlcNAc", "in_short": "as §1"}, "[13]": {"biological_target": "Gal(b1-3)GlcNAc(b1-3)Gal(b1-4)[Fuc(a1-3)]GlcNAc(b1-6)[Gal(b1-3)GlcNAc(b1-3)]Gal(b1-4)Glc", "in_short": "as §1"}, "[14]": {"biological_target": "Gal(b1-3)GlcNAc(b1-3)GalNAc", "in_short": "as §1"}, "[15]": {"biological_target": "Gal(b1-3)GlcNAc(b1-6)Gal(b1-4)GlcNAc", "in_short": "as §1"}, "[16]": {"biological_target": "Gal(b1-3)GlcNAc(b1-6)GalNAc", "in_short": "as §1"}, "[17]": {"biological_target": "Gal(b1-3)GlcNAc(b1-6)[Gal(b1-3)]GalNAc", "in_short": "as §1"}, "[18]": {"biological_target": "Gal(b1-3)GlcNAc6S", "in_short": "as §1"}, "[19]": {"biological_target": "Gal(b1-3)[Fuc(a1-4)]GlcNAc", "in_short": "as §1"}, "[20]": {"biological_target": "Gal(b1-3)[Fuc(a1-4)]GlcNAc(b1-2)Man", "in_short": "as §1"}, "[21]": {"biological_target": "Gal(b1-3)[Fuc(a1-4)]GlcNAc(b1-2)Man(a1-3)[Gal(b1-3)[Fuc(a1-4)]GlcNAc(b1-2)Man(a1-6)]Man(b1-4)GlcNAc(b1-4)[Fuc(a1-6)]GlcNAc", "in_short": "as §1"}, "[22]": {"biological_target": "Gal(b1-3)[Fuc(a1-4)]GlcNAc(b1-3)Gal(b1-3)[Fuc(a1-4)]GlcNAc", "in_short": "as §1"}, "[23]": {"biological_target": "Gal(b1-3)[Fuc(a1-4)]GlcNAc(b1-3)Gal(b1-4)[Fuc(a1-3)]GlcNAc", "in_short": "as §1"}, "[24]": {"biological_target": "Gal(b1-3)[Fuc(a1-4)]GlcNAc(b1-6)GalNAc", "in_short": "as §1"}, "[25]": {"biological_target": "Gal(b1-3)[GlcNAc(b1-6)]GalNAc", "in_short": "as §1"}, "[26]": {"biological_target": "Gal(b1-3)[Neu5Ac(a2-6)]GalNAc", "in_short": "as §1"}, "[27]": {"biological_target": "Gal(b1-3)[Neu5Ac(a2-6)]GlcNAc(b1-4)Gal(b1-4)Glc", "in_short": "as §1"}, "[28]": {"biological_target": "Gal(b1-3)[Neu5Ac(b2-6)]GalNAc", "in_short": "as §1"}, "[29]": {"biological_target": "Gal(b1-4)Gal", "in_short": "as §1"}, "[30]": {"biological_target": "Gal(b1-4)GalNAc(a1-3)[Fuc(a1-2)]Gal(b1-4)GlcNAc", "in_short": "as §1"}},
  "note": "This is one part of the list.",
  "data": [
    {"binder": "CcfD (Bacteroides vulgatus), A6KYX8 (protein) MKYKNYFKSIIYLALGAFTLGSCEDFLDRQEDEKLTFDKIWESRNTTQQYWLNAMSFLPNENGSLQGDTEPYLGASDECTIAYDRQYRWINFGTWNPSQVPYYKMDHYYKGIRECNIFLQNVYKCSDPLVTKDQLDEWYWQTRFARAYYYFLMMRDYGPVFLLGDDLLDFTASTEELYRPRNTWDQCVNYVVSEMTQCAESGVVLQQSDLPAAKWGLATVGTCHAVISRLLLYSARPLFNGNKLYSTVKNPDAPDFPELSGVKLFPELDNTKWQKAAEAAKKLIDNPCYELYRAGNDNPYEDYYGVTHETWNKELIWTDRYNGLFSWGVGTVPTGVAGTAYGAVGPTQALVDAYAMNTGWYPITGYEADGTPIVEPLSGYELASELEKSSWIYPSGGWSNKADFEIEAPNMYKDREPRFYVTVFFGGNQWLHGNSATSISFAKGGNGNKSHDYPKSGYLCNRFYDHKLNSSEGQWGNITFPVFRLGEIYLNFIEAVLECKKNGVALDPSYEALAMEKWADLRKRAGLDPITSIYGQVSTEELIQLCRKERQIELAFERHRYFDTRTWMIATQTDNGKMYGMNTSCPLDAGMKGTETPDGFWERTAFETRVFQNKHYLYPFSQRELDRNKLLTQNYGW", "values": [
      {"measurement": "glycan array binding signal (z-score)", "setting": "[1]", "value": -0.185},
      {"measurement": "glycan array binding signal (z-score)", "setting": "[2]", "value": 1.02},
      {"measurement": "glycan array binding signal (z-score)", "setting": "[3]", "value": -0.881},
      {"measurement": "glycan array binding signal (z-score)", "setting": "[4]", "value": -0.47},
      {"measurement": "glycan array binding signal (z-score)", "setting": "[5]", "value": 0.958},
      {"measurement": "glycan array binding signal (z-score)", "setting": "[6]", "value": -0.912},
      {"measurement": "glycan array binding signal (z-score)", "setting": "[7]", "value": -0.693},
      {"measurement": "glycan array binding signal (z-score)", "setting": "[8]", "value": -0.343},
      {"measurement": "glycan array binding signal (z-score)", "setting": "[9]", "value": -0.759},
      {"measurement": "glycan array binding signal (z-score)", "setting": "[10]", "value": 0.999},
      {"measurement": "glycan array binding signal (z-score)", "setting": "[11]", "value": -0.526},
      {"measurement": "glycan array binding signal (z-score)", "setting": "[12]", "value": -0.668},
      {"measurement": "glycan array binding signal (z-score)", "setting": "[13]", "value": -0.642},
      {"measurement": "glycan array binding signal (z-score)", "setting": "[14]", "value": -0.2},
      {"measurement": "glycan array binding signal (z-score)", "setting": "[15]", "value": -0.932},
      {"measurement": "glycan array binding signal (z-score)", "setting": "[16]", "value": 0.841},
      {"measurement": "glycan array binding signal (z-score)", "setting": "[17]", "value": -0.083},
      {"measurement": "glycan array binding signal (z-score)", "setting": "[18]", "value": -0.947},
      {"measurement": "glycan array binding signal (z-score)", "setting": "[19]", "value": -0.269},
      {"measurement": "glycan array binding signal (z-score)", "setting": "[20]", "value": -0.983},
      {"measurement": "glycan array binding signal (z-score)", "setting": "[21]", "value": 1.41},
      {"measurement": "glycan array binding signal (z-score)", "setting": "[22]", "value": -0.871},
      {"measurement": "glycan array binding signal (z-score)", "setting": "[23]", "value": 1.52},
      {"measurement": "glycan array binding signal (z-score)", "setting": "[24]", "value": -0.022},
      {"measurement": "glycan array binding signal (z-score)", "setting": "[25]", "value": -0.348},
      {"measurement": "glycan array binding signal (z-score)", "setting": "[26]", "value": 0.796},
      {"measurement": "glycan array binding signal (z-score)", "setting": "[27]", "value": -0.698},
      {"measurement": "glycan array binding signal (z-score)", "setting": "[28]", "value": -0.861},
      {"measurement": "glycan array binding signal (z-score)", "setting": "[29]", "value": -0.673},
      {"measurement": "glycan array binding signal (z-score)", "setting": "[30]", "value": -0.409}
    ]}
  ]
}
